Reference: paper PMC4527729, “The Inner Membrane Protein PilG Interacts with DNA and the Secretin PilQ in Transformation”
These are yes or no findings as the source states them, for the method shown. For some assays here: Binding can be weak; no strength is given.

Columns and labels:
Assay in all cases: far-Western, overlay or dot blot; 1 ug of each purified protein (PilQ proteins, PilN, PilO, PilP, PilF, PilT, ComP, ComL, purified pili, BSA) resolved by SDS-PAGE, blotted on nitrocellulose, renatured overnight at 4°C in renaturing buffer (0.25% gelatin, 0.5% BSA, 0.2% Triton X-100, 10 mM Tris-HCl, 5 mM β-mercaptoethanol, 100 mM NaCl, pH 7.5); membrane incubated 3 h with 1 ug purified full-length or partial PilG in 10 ml renaturing buffer; bound PilG detected with rabbit antiserum; both purified
[1] = biological target: T1, PilQ_(25-354) (N. meningitidis) (UniProt Q70M91)
T1 sequence: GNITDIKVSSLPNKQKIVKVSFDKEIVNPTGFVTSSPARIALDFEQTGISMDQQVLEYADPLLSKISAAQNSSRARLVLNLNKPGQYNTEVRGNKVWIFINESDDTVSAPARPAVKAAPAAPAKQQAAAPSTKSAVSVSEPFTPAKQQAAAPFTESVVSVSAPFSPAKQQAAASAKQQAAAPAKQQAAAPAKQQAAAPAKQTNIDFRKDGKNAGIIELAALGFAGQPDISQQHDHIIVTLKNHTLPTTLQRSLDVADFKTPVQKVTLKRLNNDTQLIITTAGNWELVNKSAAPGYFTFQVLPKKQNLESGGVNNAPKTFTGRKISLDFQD

[2] = biological target: T2, PilQ_(217-478) (N. meningitidis) (UniProt Q70M91)
T2 sequence: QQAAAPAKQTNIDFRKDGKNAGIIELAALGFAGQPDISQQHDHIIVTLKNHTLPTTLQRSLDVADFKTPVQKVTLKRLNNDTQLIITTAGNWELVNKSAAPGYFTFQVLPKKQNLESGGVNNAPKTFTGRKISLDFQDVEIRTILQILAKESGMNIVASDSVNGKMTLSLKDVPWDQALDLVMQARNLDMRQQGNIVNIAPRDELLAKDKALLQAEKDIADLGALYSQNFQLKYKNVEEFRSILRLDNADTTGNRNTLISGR

PilN (N. meningitidis) = biological target: T3, PilN (N. meningitidis) (UniProt Q4W563)
T3 sequence: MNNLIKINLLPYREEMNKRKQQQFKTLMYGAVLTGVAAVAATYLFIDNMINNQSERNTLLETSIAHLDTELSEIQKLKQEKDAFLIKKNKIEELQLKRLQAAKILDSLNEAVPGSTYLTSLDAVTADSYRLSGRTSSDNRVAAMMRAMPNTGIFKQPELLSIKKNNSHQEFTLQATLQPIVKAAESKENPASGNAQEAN

PilF (N. meningitidis) = biological target: T4, PilF (N. meningitidis) (UniProt Q7DDR2)
T4 sequence: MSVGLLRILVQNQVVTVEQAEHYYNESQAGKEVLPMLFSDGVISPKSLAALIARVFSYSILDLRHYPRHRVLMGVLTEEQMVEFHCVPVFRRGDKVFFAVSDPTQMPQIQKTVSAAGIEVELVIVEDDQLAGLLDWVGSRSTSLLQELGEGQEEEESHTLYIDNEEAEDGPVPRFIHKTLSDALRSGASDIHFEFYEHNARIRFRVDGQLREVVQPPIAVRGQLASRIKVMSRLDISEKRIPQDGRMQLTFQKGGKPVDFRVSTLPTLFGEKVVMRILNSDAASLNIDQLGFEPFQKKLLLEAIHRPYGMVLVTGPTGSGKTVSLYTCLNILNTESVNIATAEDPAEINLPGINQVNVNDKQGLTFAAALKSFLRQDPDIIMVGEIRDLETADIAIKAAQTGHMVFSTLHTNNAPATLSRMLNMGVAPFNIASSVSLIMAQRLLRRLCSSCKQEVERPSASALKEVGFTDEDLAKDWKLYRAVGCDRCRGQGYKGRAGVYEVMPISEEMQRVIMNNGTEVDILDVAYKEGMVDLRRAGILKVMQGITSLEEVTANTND

Substance	binding [1]	binding [2]	binding (PilN (N. meningitidis))	binding (PilF (N. meningitidis))
PilG_(166-410) (N. meningitidis MC58) (domain or fragment)	no binding (tested: 1 μg in 10 ml renaturing buffer)	no binding (tested: 1 μg in 10 ml renaturing buffer)	no binding (tested: 1 μg in 10 ml renaturing buffer)	no binding (tested: 1 μg in 10 ml renaturing buffer)
PilG_(1-256) (N. meningitidis MC58) (domain or fragment)	binds	no binding (tested: 1 μg in 10 ml renaturing buffer)	no binding (tested: 1 μg in 10 ml renaturing buffer)	no binding (tested: 1 μg in 10 ml renaturing buffer)
PilG full-length (PilG_(FL/1-410)) (N. meningitidis MC58)	binds	no binding (tested: 1 μg in 10 ml renaturing buffer)	no binding (tested: 1 μg in 10 ml renaturing buffer)	no binding (tested: 1 μg in 10 ml renaturing buffer)
PilG_(1-178) (N. meningitidis MC58) (domain or fragment)	binds	no binding (tested: 1 μg in 10 ml renaturing buffer)	no binding (tested: 1 μg in 10 ml renaturing buffer)	no binding (tested: 1 μg in 10 ml renaturing buffer)
PilG_(257-410) (N. meningitidis MC58) (domain or fragment)	no binding (tested: 1 μg in 10 ml renaturing buffer)	no binding (tested: 1 μg in 10 ml renaturing buffer)	no binding (tested: 1 μg in 10 ml renaturing buffer)	no binding (tested: 1 μg in 10 ml renaturing buffer)
